Results taken from US4384996A, “Novel cyclosporins” (Sandoz Ltd., priority 1981, dated 1983).
At least one peptide structure holds a part that was inferred or is arguable (an end, a ring closure or a residue).

System: haemolysis zones
Experiment: Local hemolysis in vitro in gel (test 1.1, Mishell and Dutton)
Assay type: cell-based

In the case of C/C=C/C[C@@H](C)[C@@H](O)[C@H]1C(=O)N[C@@H](CC)C(=O)N(C)CC(=O)N(C)[C@@H](CC(C)C)C(=O)N[C@@H](C(C)C)C(=O)N(C)[C@@H](CC(C)C)C(=O)N[C@@H](C)C(=O)N[C@H](CO)C(=O)N(C)[C@@H](CC(C)C)C(=O)N(C)[C@@H](CC(C)C)C(=O)N(C)[C@@H](C(C)C)C(=O)N1C [(D)-Ser ^8 -cyclosporin], the “% inhibition compared with untreated control” value (shortened to “% inhibition”) (test method 1.1, concentration 0.1 μg/ml) is reported as -48%, the “% inhibition” value (test method 1.1, concentration 1.0 μg/ml) is reported as -99% and the “% inhibition” value (test method 1.1, concentration 10.0 μg/ml) is reported as -100%.
